# Measurements published in the supplement of paper PMC8728848.
# Some of the results follow.
# Tests used:
# Assay in all cases: glycan array binding signal (z-score within array); higher = stronger binding
# Details in all cases: glycan notation: IUPAC condensed, linker removed
# [1] = molecular target: GlcNAc(b1-3)Gal(b1-4)GlcNAc(b1-3)Gal(b1-4)GlcNAc(b1-2)Man(a1-3)[GlcNAc(b1-3)Gal(b1-4)GlcNAc(b1-3)Gal(b1-4)GlcNAc(b1-2)Man(a1-6)]Man(b1-4)GlcNAc(b1-4)[Fuc(a1-6)]GlcNAc
# Summary of the method: (§1)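 The binding signal is a Z-score computed within each array. Data were drawn from 3228 arrays in the Consortium for Functional Glycomics database, restricted to those with a known protein sequence. Scores were averaged over arrays of the same protein sequence at different concentrations or buffers, and over linkers, and negative values can be taken as non-binding.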
# [2] = molecular target: GlcNAc(b1-3)Gal(b1-4)GlcNAc(b1-3)Gal(b1-4)GlcNAc(b1-2)[GlcNAc(b1-3)Gal(b1-4)GlcNAc(b1-3)Gal(b1-4)GlcNAc(b1-6)]Man(a1-6)[GlcNAc(b1-3)Gal(b1-4)GlcNAc(b1-3)Gal(b1-4)GlcNAc(b1-2)Man(a1-3)]Man(b1-4)GlcNAc(b1-4)[Fuc(a1-6)]GlcNAc
# Summary of the method: as §1
# [3] = molecular target: GlcNAc(b1-3)Gal(b1-4)GlcNAc(b1-3)Gal(b1-4)GlcNAc(b1-3)Gal(b1-4)GlcNAc(b1-2)Man(a1-3)[GlcNAc(b1-3)Gal(b1-4)GlcNAc(b1-3)Gal(b1-4)GlcNAc(b1-3)Gal(b1-4)GlcNAc(b1-2)Man(a1-6)]Man(b1-4)GlcNAc(b1-4)GlcNAc
# Summary of the method: as §1
# [4] = molecular target: GlcNAc(b1-3)Gal(b1-4)GlcNAc(b1-3)Gal(b1-4)GlcNAc(b1-3)Gal(b1-4)GlcNAc(b1-2)Man(a1-3)[GlcNAc(b1-3)Gal(b1-4)GlcNAc(b1-3)Gal(b1-4)GlcNAc(b1-3)Gal(b1-4)GlcNAc(b1-2)Man(a1-6)]Man(b1-4)GlcNAc(b1-4)[Fuc(a1-6)]GlcNAc
# Summary of the method: as §1
# [5] = molecular target: GlcNAc(b1-3)Gal(b1-4)GlcNAc(b1-3)Gal(b1-4)GlcNAc(b1-3)Gal(b1-4)GlcNAc(b1-2)[GlcNAc(b1-3)Gal(b1-4)GlcNAc(b1-3)Gal(b1-4)GlcNAc(b1-3)Gal(b1-4)GlcNAc(b1-6)]Man(a1-6)[GlcNAc(b1-3)Gal(b1-4)GlcNAc(b1-3)Gal(b1-4)GlcNAc(b1-3)Gal(b1-4)GlcNAc(b1-2)Man(a1-3)]Man(b1-4)GlcNAc(b1-4)[Fuc(a1-6)]GlcNAc
# Summary of the method: as §1
# [6] = molecular target: GlcNAc(b1-3)Gal(b1-4)GlcNAc(b1-3)Gal(b1-4)GlcNAc(b1-3)Gal(b1-4)GlcNAc(b1-3)Gal(b1-4)GlcNAc(b1-2)Man(a1-3)[GlcNAc(b1-3)Gal(b1-4)GlcNAc(b1-3)Gal(b1-4)GlcNAc(b1-3)Gal(b1-4)GlcNAc(b1-3)Gal(b1-4)GlcNAc(b1-2)Man(a1-6)]Man(b1-4)GlcNAc(b1-4)GlcNAc
# Summary of the method: as §1
# [7] = molecular target: GlcNAc(b1-3)Gal(b1-4)GlcNAc(b1-3)Gal(b1-4)GlcNAc(b1-3)Gal(b1-4)GlcNAc(b1-3)Gal(b1-4)GlcNAc(b1-2)Man(a1-3)[GlcNAc(b1-3)Gal(b1-4)GlcNAc(b1-3)Gal(b1-4)GlcNAc(b1-3)Gal(b1-4)GlcNAc(b1-3)Gal(b1-4)GlcNAc(b1-2)Man(a1-6)]Man(b1-4)GlcNAc(b1-4)[Fuc(a1-6)]GlcNAc
# Summary of the method: as §1
# [8] = molecular target: GlcNAc(b1-3)Gal(b1-4)GlcNAc(b1-3)Gal(b1-4)GlcNAc(b1-3)Gal(b1-4)GlcNAc(b1-3)Gal(b1-4)GlcNAc(b1-2)[GlcNAc(b1-3)Gal(b1-4)GlcNAc(b1-3)Gal(b1-4)GlcNAc(b1-3)Gal(b1-4)GlcNAc(b1-3)Gal(b1-4)GlcNAc(b1-6)]Man(a1-6)[GlcNAc(b1-3)Gal(b1-4)GlcNAc(b1-3)Gal(b1-4)GlcNAc(b1-3)Gal(b1-4)GlcNAc(b1-3)Gal(b1-4)GlcNAc(b1-2)Man(a1-3)]Man(b1-4)GlcNAc(b1-4)[Fuc(a1-6)]GlcNAc
# Summary of the method: as §1
# [9] = molecular target: GlcNAc(b1-3)Gal(b1-4)GlcNAc(b1-3)Gal(b1-4)GlcNAc(b1-3)GalNAc
# Summary of the method: as §1
# [10] = molecular target: GlcNAc(b1-3)Gal(b1-4)GlcNAc(b1-3)GalNAc
# Summary of the method: as §1
# [11] = molecular target: GlcNAc(b1-3)Gal(b1-4)GlcNAc(b1-3)[GlcNAc(b1-3)Gal(b1-4)GlcNAc(b1-3)]GalNAc
# Summary of the method: as §1
# [12] = molecular target: GlcNAc(b1-3)Gal(b1-4)GlcNAc(b1-6)[Gal(b1-3)]GalNAc
# Summary of the method: as §1
# [13] = molecular target: GlcNAc(b1-3)Gal(b1-4)GlcNAc(b1-6)[GlcNAc(b1-3)Gal(b1-3)]GalNAc
# Summary of the method: as §1
# [14] = molecular target: GlcNAc(b1-3)Gal(b1-4)GlcNAc(b1-6)[GlcNAc(b1-3)]Gal(b1-4)GlcNAc
# Summary of the method: as §1
# GlcNAc(b1-3)GalNAc = molecular target: GlcNAc(b1-3)GalNAc
# Summary of the method: as §1
# GlcNAc(b1-3)Man = molecular target: GlcNAc(b1-3)Man
# Summary of the method: as §1
# [15] = molecular target: GlcNAc(b1-3)[GlcNAc(b1-4)][GlcNAc(b1-6)]GlcNAc
# Summary of the method: as §1
# [16] = molecular target: GlcNAc(b1-3)[GlcNAc(b1-6)]Gal(b1-4)GlcNAc
# Summary of the method: as §1
# [17] = molecular target: GlcNAc(b1-3)[GlcNAc(b1-6)]GalNAc
# Summary of the method: as §1
# [18] = molecular target: GlcNAc(b1-4)Gal(b1-4)GlcNAc
# Summary of the method: as §1
# GlcNAc(b1-4)GlcNAc = molecular target: GlcNAc(b1-4)GlcNAc
# Summary of the method: as §1
# [19] = molecular target: GlcNAc(b1-4)GlcNAc(b1-4)GlcNAc
# Summary of the method: as §1
# [20] = molecular target: GlcNAc(b1-4)GlcNAc(b1-4)GlcNAc(b1-4)GlcNAc(b1-4)GlcNAc
# Summary of the method: as §1
# [21] = molecular target: GlcNAc(b1-4)GlcNAc(b1-4)GlcNAc(b1-4)GlcNAc(b1-4)GlcNAc(b1-4)GlcNAc
# Summary of the method: as §1
# [22] = molecular target: GlcNAc(b1-4)[GlcNAc(b1-6)]GalNAc
# Summary of the method: as §1
# [23] = molecular target: GlcNAc(b1-6)Gal(b1-4)GlcNAc
# Summary of the method: as §1
# GlcNAc(b1-6)GalNAc = molecular target: GlcNAc(b1-6)GalNAc
# Summary of the method: as §1
# [24] = molecular target: GlcNAc6S(b1-3)Gal(b1-4)GlcNAc
# Summary of the method: as §1
# Kdn(a2-3)Gal(b1-3)GalNAc = molecular target: Kdn(a2-3)Gal(b1-3)GalNAc
# Summary of the method: as §1
# Kdn(a2-3)Gal(b1-3)GlcNAc = molecular target: Kdn(a2-3)Gal(b1-3)GlcNAc
# Summary of the method: as §1
# Kdn(a2-3)Gal(b1-4)Glc = molecular target: Kdn(a2-3)Gal(b1-4)Glc
# Summary of the method: as §1
# Kdn(a2-3)Gal(b1-4)GlcNAc = molecular target: Kdn(a2-3)Gal(b1-4)GlcNAc
# Summary of the method: as §1
# [25] = molecular target: Kdn(a2-3)Gal(b1-4)[Fuc(a1-3)]GlcNAc
# Summary of the method: as §1
# Kdn(a2-6)Gal(b1-4)GlcNAc = molecular target: Kdn(a2-6)Gal(b1-4)GlcNAc
# Summary of the method: as §1
# [26] = molecular target: Man(a1-2)Man(a1-2)Man(a1-3)Man
# Summary of the method: as §1
# [27] = molecular target: Man(a1-2)Man(a1-2)Man(a1-6)[Man(a1-3)]Man
# Summary of the method: as §1
# Man(a1-2)Man(a1-3)Man = molecular target: Man(a1-2)Man(a1-3)Man
# Summary of the method: as §1
# [28] = molecular target: Man(a1-2)Man(a1-3)[Man(a1-2)Man(a1-6)]Man
# Summary of the method: as §1
binder,measurement,setting,value
his-Lectin-24A (Drosophila melanogaster) (protein) MFRLSVLVLNLLLVSHEFSAGTAKIEIQPLPALCNGYCFPTLKPVMEYVAIHQDKWNTCTEILANEARKDQIQLNIQLDALKADVSNIKASQLSKDEKLDRMEREQFAMHESLETINRYLTVKLDRTKLQLEAIKNTMDYMKAQMDGYFSAINGVQCLQPGFEKIGDRYFYIEEDVELNWLDAQAKCRRMGGHLASIKTKQEFDAIVEKLDDSKSYFLGVNENTKTGDFVSAASGKSCLYHEWGPGEPHHNNDQERCVSILRKLMHVGNCTYEKRFICQYGI,glycan array binding signal (z-score),[1],0.207
same,glycan array binding signal (z-score),[2],2.11
same,glycan array binding signal (z-score),[3],0.601
same,glycan array binding signal (z-score),[4],0.824
same,glycan array binding signal (z-score),[5],1.15
same,glycan array binding signal (z-score),[6],0.615
same,glycan array binding signal (z-score),[7],2.05
same,glycan array binding signal (z-score),[8],0.991
same,glycan array binding signal (z-score),[9],-0.549
same,glycan array binding signal (z-score),[10],-0.152
same,glycan array binding signal (z-score),[11],-1.7
same,glycan array binding signal (z-score),[12],2.02
same,glycan array binding signal (z-score),[13],1.17
same,glycan array binding signal (z-score),[14],1
same,glycan array binding signal (z-score),GlcNAc(b1-3)GalNAc,0.694
same,glycan array binding signal (z-score),GlcNAc(b1-3)Man,-0.281
same,glycan array binding signal (z-score),[15],-0.274
same,glycan array binding signal (z-score),[16],1.02
same,glycan array binding signal (z-score),[17],-0.388
same,glycan array binding signal (z-score),[18],0.354
same,glycan array binding signal (z-score),GlcNAc(b1-4)GlcNAc,0.757
same,glycan array binding signal (z-score),[19],0.684
same,glycan array binding signal (z-score),[20],0.406
same,glycan array binding signal (z-score),[21],-0.433
same,glycan array binding signal (z-score),[22],0.423
same,glycan array binding signal (z-score),[23],0.608
same,glycan array binding signal (z-score),GlcNAc(b1-6)GalNAc,0.138
same,glycan array binding signal (z-score),[24],-0.677
same,glycan array binding signal (z-score),Kdn(a2-3)Gal(b1-3)GalNAc,0.552
same,glycan array binding signal (z-score),Kdn(a2-3)Gal(b1-3)GlcNAc,1.42
same,glycan array binding signal (z-score),Kdn(a2-3)Gal(b1-4)Glc,0.232
same,glycan array binding signal (z-score),Kdn(a2-3)Gal(b1-4)GlcNAc,1.1
same,glycan array binding signal (z-score),[25],0.638
same,glycan array binding signal (z-score),Kdn(a2-6)Gal(b1-4)GlcNAc,-0.061
same,glycan array binding signal (z-score),[26],-0.705
same,glycan array binding signal (z-score),[27],0.378
same,glycan array binding signal (z-score),Man(a1-2)Man(a1-3)Man,0.131
same,glycan array binding signal (z-score),[28],-0.589

# Two successive records from above:
binder,measurement,setting,value
his-Lectin-24A (Drosophila melanogaster) (protein) MFRLSVLVLNLLLVSHEFSAGTAKIEIQPLPALCNGYCFPTLKPVMEYVAIHQDKWNTCTEILANEARKDQIQLNIQLDALKADVSNIKASQLSKDEKLDRMEREQFAMHESLETINRYLTVKLDRTKLQLEAIKNTMDYMKAQMDGYFSAINGVQCLQPGFEKIGDRYFYIEEDVELNWLDAQAKCRRMGGHLASIKTKQEFDAIVEKLDDSKSYFLGVNENTKTGDFVSAASGKSCLYHEWGPGEPHHNNDQERCVSILRKLMHVGNCTYEKRFICQYGI,glycan array binding signal (z-score),[9],-0.549
same,glycan array binding signal (z-score),[10],-0.152
